Measurements reported in PubChem BioAssay AID686938 (Drosophila RNAi Screening Center, 2013).

Aim: 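Looking for CRAC channel components and the factors controlling them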 (primary screen)
Cells: Drosophila S2R+ cells
Reagent: long dsRNA against Drosophila genes, about 0.25 µg dsRNA per well, roughly 10,000 cells
Time to read-out: 5 days of knock-down before the calcium assay
Challenge: thapsigargin (SERCA pump blocker) to empty calcium stores; entry signal taken 4 min after adding it
Measured: 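Duplicate raw fluo-4 intensities per well from a plate reader, at rest and four minutes after thapsigargin emptied calcium stores; entry-to-rest ratio filled for only some wells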
Scale: calcium entry signal: higher = stronger calcium signal after store depletion; entry to resting ratio: higher = more calcium entry relative to resting level; resting calcium signal: higher = higher resting calcium signal
Call rule: 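Hit if the duplicate-averaged plate z-score for entry over resting signal is under −3; wells with weak total dye signal (Fmax z < −2) or more than 5 off-targets removed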
Meaning of the calls: active = strongly reduced calcium entry; inactive = no strong reduction
The deposit covers about 23,000 reagents; below is an unselected part of those that have a named target and a result. Of all reagents, 75 (0.33%) were called active. 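Raw plate signals without normalisation; calls rest on plate z-scores that were not deposited; ratio present for only 364 wells.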 Reagents against one gene are numbered here. Names joined by + are all predicted targets of the reagent. Reagent sequences are not shown. The record does not give: the dose of the treatment.

no.	gene knocked down	dsRNA no.	calcium entry signal, replicate 1 (fluorescence units)	calcium entry signal, replicate 2 (fluorescence units)	entry to resting ratio	resting calcium signal, replicate 1 (fluorescence units)	resting calcium signal, replicate 2 (fluorescence units)	outcome
1	bsd (back seat driver)	1	1.51e7	2.81e7		9.70e6	1.47e7	inactive
2	HDAC1 (Histone deacetylase 1)	1	3.13e7	2.60e7		2.80e7	1.27e7	inactive
3	slv (saliva)	1	2.67e7	4.49e7		1.34e7	1.83e7	inactive
4	CG15034	1	3.56e7	3.76e7		1.80e7	1.78e7	inactive
5	Dpy-30L1 (Dpy-30-like 1)	1	2.13e7	3.65e7		1.02e7	1.51e7	inactive
6	MtnB (Metallothionein B)	1	4.65e7	3.73e7		2.70e7	1.80e7	inactive
7	Pld (Phospholipase D)	1	4.20e7			2.05e7		inactive
8	Stt3A	1	3.18e7	3.72e7		1.54e7	1.65e7	inactive
9	Rsph1 (Radial spoke head protein 1)	1	4.65e7	3.61e7		2.16e7	1.80e7	inactive
10	CG1640	1	4.41e7	4.06e7		1.92e7	1.84e7	inactive
11	CG13725	1	3.38e7	3.54e7		1.54e7	1.67e7	inactive
12	eIF2Bgamma (eukaryotic translation initiation factor 2B subunit gamma)	1	2.59e7	2.37e7		1.17e7	1.52e7	inactive
13	CG7691	1	4.48e7	4.50e7		4.97e7	1.90e7	inactive
14	CG12917	1	2.68e7	3.93e7		1.30e7	1.57e7	inactive
15	CG12963	1	5.20e7	6.07e7		2.88e7	2.71e7	inactive
16	CG12963	2	4.25e7	3.54e7		2.16e7	1.61e7	inactive
17	CG8379	1	4.90e7	4.34e7		2.17e7	1.95e7	inactive
18	Rim (Rab3 interacting molecule)	1	3.17e7	4.35e7		5.11e7	1.84e7	inactive
19	Rim (Rab3 interacting molecule)	2	2.30e7	2.65e7		3.74e7	1.42e7	inactive
20	Rim (Rab3 interacting molecule)	3	3.84e7	3.14e7		1.77e7	1.45e7	inactive
21	Rim (Rab3 interacting molecule)	4	3.15e7	3.05e7		3.61e7	1.33e7	inactive
22	Rim (Rab3 interacting molecule)	5	2.30e7	2.68e7		1.23e7	1.18e7	inactive

Ordered by “calcium entry signal, replicate 1 (fluorescence units)” (highest first): 9 of the entries above.
gene knocked down	dsRNA no.	calcium entry signal, replicate 1 (fluorescence units)	calcium entry signal, replicate 2 (fluorescence units)	entry to resting ratio	resting calcium signal, replicate 1 (fluorescence units)	resting calcium signal, replicate 2 (fluorescence units)	outcome
MtnB (Metallothionein B)	1	4.65e7	3.73e7		2.70e7	1.80e7	inactive
Rsph1 (Radial spoke head protein 1)	1	4.65e7	3.61e7		2.16e7	1.80e7	inactive
CG1640	1	4.41e7	4.06e7		1.92e7	1.84e7	inactive
Pld (Phospholipase D)	1	4.20e7			2.05e7		inactive
CG15034	1	3.56e7	3.76e7		1.80e7	1.78e7	inactive
CG13725	1	3.38e7	3.54e7		1.54e7	1.67e7	inactive
Stt3A	1	3.18e7	3.72e7		1.54e7	1.65e7	inactive
eIF2Bgamma (eukaryotic translation initiation factor 2B subunit gamma)	1	2.59e7	2.37e7		1.17e7	1.52e7	inactive
Dpy-30L1 (Dpy-30-like 1)	1	2.13e7	3.65e7		1.02e7	1.51e7	inactive

Continued:
no.	gene knocked down	dsRNA no.	calcium entry signal, replicate 1 (fluorescence units)	calcium entry signal, replicate 2 (fluorescence units)	entry to resting ratio	resting calcium signal, replicate 1 (fluorescence units)	resting calcium signal, replicate 2 (fluorescence units)	outcome
23	CG43774 + CG43773	1	4.05e7	3.94e7		1.85e7	1.65e7	inactive
24	CG43774 + CG43773	2	3.62e7	3.73e7		1.72e7	1.76e7	inactive
25	RpL18A (Ribosomal protein L18A)	1	1.64e7	1.15e7		1.20e7	8.77e6	inactive
26	CG32104	1	3.03e7	2.62e7		1.59e7	1.35e7	inactive
27	CG32104	2	2.98e7	4.01e7		1.60e7	1.93e7	inactive
28	not (non-stop)	1	4.07e7	5.58e7		2.16e7	4.00e7	inactive
29	CR18275 + CR18166 + CG32817	1	7.30e7	3.63e7		3.31e7	1.78e7	inactive
30	CG31680	1	2.64e7	4.05e7		1.31e7	1.97e7	inactive
31	CG11977	1	5.81e7	3.48e7		2.67e7	1.74e7	inactive
32	CG6665	1	3.58e7	4.05e7		1.69e7	1.98e7	inactive
33	beta'COP (Coat Protein (coatomer) beta')	1	1.76e7			1.56e7		inactive
34	dimm (dimmed)	1	4.67e7	5.34e7		2.01e7	2.28e7	inactive
35	Ptth (Prothoracicotropic hormone)	1	3.32e7	3.91e7		1.65e7	1.75e7	inactive
36	CG30393	1	2.86e7	3.32e7		1.33e7	1.45e7	inactive
37	Mul1 (Mitochondrial E3 ubiquitin protein ligase 1)	1	4.02e7	4.99e7		1.90e7	2.07e7	inactive
38	ms(3)K81 (male sterile (3) K81)	1	2.69e7	4.50e7		1.42e7	1.97e7	inactive
39	JYalpha (retired record) + JYalpha	1	3.97e7	3.32e7		2.19e7	1.51e7	inactive
40	sordd2 + sordd1	1	3.64e7	3.69e7		1.66e7	1.63e7	inactive
41	CG34244	1	2.55e7	3.01e7		1.30e7	1.47e7	inactive
42	mat (materazzi)	1	2.05e7	3.36e7		1.06e7	1.45e7	inactive
43	mat (materazzi)	2	2.69e7	4.84e7		1.42e7	2.14e7	inactive
44	CG5815	1	3.78e7	5.60e7		1.99e7	2.43e7	inactive
45	CG5846	1	5.40e7			2.62e7		inactive
46	IM33 (Immune induced molecule 33)	1	3.76e7	3.27e7		1.78e7	1.60e7	inactive
47	CG17362	1	5.65e7	4.59e7		2.15e7	1.80e7	inactive
48	CG16824	1	3.33e7	1.49e7		1.58e7	8.29e6	inactive
49	CG5342	1	4.45e7	4.28e7		2.08e7	2.03e7	inactive
50	Acbp4 (Acyl-CoA binding protein 4)	1	1.96e7	5.74e7		1.00e7	2.21e7	inactive
51	CG31869	1	2.62e7	4.02e7		1.35e7	1.82e7	inactive
52	CG31869	2	3.47e7	4.30e7		1.42e7	1.87e7	inactive
53	CG14265	1	5.68e7	5.10e7	2	2.82e7	2.10e7	inactive
54	tx (taxi)	1	3.28e7	3.68e7		1.55e7	1.73e7	inactive
55	Mocs2A + Mocs2B	1	2.65e7	1.85e7		1.31e7	1.04e7	inactive
56	Mocs2A + Mocs2B	2	4.89e7	5.34e7		2.39e7	2.03e7	inactive
57	hng2 (hinge2)	1	5.57e7	3.52e7		2.55e7	1.74e7	inactive
58	Rev1 (DNA polymerase Rev1)	1	4.52e7	3.85e7		2.17e7	1.76e7	inactive
